Measured values: paper PMC5345129
Numbering of substitutions follows the chain as printed. Names may count otherwise. These are yes or no findings as the source states them, for the method shown. In cells and extracts the contact can be indirect. Binding calls can cover weak binding; strength is not graded here. Where a sequence is shown, tags or fusion partners need not be part of it.

B1: myc-tagged, constitutively active Gα12 (GTPase-deficient Q229L mutant) (protein, UniProt P27600 1-379)
chain: MSGVVRTLSRCLLPAEAGARERRAGAARDAEREARRRSRDIDALLARERRAVRRLVKILLLGAGESGKSTFLKQMRIIHGREFDQKALLEFRDTIFDNILKGSRVLVDARDKLGIPWQHSENEKHGMFLMAFENKAGLPVEPATFQLYVPALSALWRDSGIREAFSRRSEFQLGESVKYFLDNLDRIGQLNYFPSKQDILLARKATKGIVEHDFVIKKIPFKMVDVGGLRSQRQKWFQCFDGITSILFMVSSSEYDQVLMEDRRTNRLVESMNIFETIVNNKLFFNVSIILFLNKMDLLVEKVKSVSIKKHFPDFKGDPHRLEDVQRYLVQCFDRKRRNRSKPLFHHFTTAIDTENIRFVFHAVKDTILQENLKDIMLQ
B2: myc-tagged, constitutively active Gα12 (Q229L) with C11A substitution (protein, UniProt P27600 1-379)
chain: B1 chain with C11A
B3: EGFP-tagged, constitutively active Gα12 (Q229L) (protein, UniProt P27600 1-379)
chain: B1 chain
B4: myc-tagged, constitutively active Gα12 (Q229L) cassette mutant Δ244–249 (protein, UniProt P27600 1-379)
chain: B1 chain with T244N, S245A, I246A, L247I, F248R, M249S
B5: EGFP-tagged, constitutively active Gα13 (Q226L) (protein, UniProt P27601 1-377)
chain: MADFLPSRSVLSVCFPGCVLTNGEAEQQRKSKEIDKCLSREKTYVKRLVKILLLGAGESGKSTFLKQMRIIHGQDFDQRAREEFRPTIYSNVIKGMRVLVDAREKLHIPWGDNKNQLHGDKLMAFDTRAPMAAQGPVETRVFLQYLPAIRALWEDSGIQNAYDRRREFQLGESVKYFLDNLDKLGVPDYIPSQQDILLARRPTKGIHEYDFEIKNVPFKMVDVGGLRSERKRWFECFDSVTSILFLVSSSEFDQVLMEDRQTNRLTESLNIFETIVNNRVFSNVSIILFLNKTDLLEEKVQVVSIKDYFLEFEGDPHCLRDVQKFLVECFRGKRRDQQQRPLYHHFTTAINTENIRLVFRDVKDTILHDNLKQLMLQ

Tests used:
Assay in all cases: pull-down; GST fusion proteins bound to Glutathione Sepharose 4B; Gα variants from high-speed supernatants of transfected HEK293 cells, detergent diluted to 0.05% polyoxyethylene-10-lauryl ether; 50 mM HEPES pH 7.5, 1 mM EDTA, 3 mM dithiothreitol, 10 mM MgSO4; 2 h at 4°C; three washes; immunoblot (anti-Gα12, anti-myc or anti-EGFP); 5% of the extract kept as load; only the target purified
[1] = target: GST-fusion of the 257-amino acid C-terminus of AKAP-Lbc (human)
[2] = target: GST-fusion of the RH domain of LARG (leukemia-associated RhoGEF)
[3] = target: GST-fused 257-amino acid C-terminal region of AKAP-Lbc, charge-reversal mutant E2670R (human)
[4] = target: GST-fused 257-amino acid C-terminal region of AKAP-Lbc, charge-reversal mutant E2576R (human)
[5] = target: GST-fused 257-amino acid region of p114RhoGEF, charge-reversal mutant E789R (human)
[6] = target: GST-fused 257-amino acid region of p114RhoGEF, charge-reversal mutant E695R (human)
[7] = target: GST-fused 257-amino acid region of p114RhoGEF, charge-reversal mutant E759R (human)

Binder | binding [1] | binding [2] | also measured
B1 | binds | binds | binding [3]: binds; binding [4]: binds; binding [5]: binds; binding [6]: binds; binding [7]: binds
B2 | – | binds | –
B3 | binds | binds | –
B4 | binds | – | –
B5 | no binding | – | –
